# This is one part of the list.
# Protein sequences, listed by entry. Tags and fused reporters are not part of them. Lines headed by an entry give the natural chain unless they say otherwise; changes in a name come on top.
# UniProt P30566: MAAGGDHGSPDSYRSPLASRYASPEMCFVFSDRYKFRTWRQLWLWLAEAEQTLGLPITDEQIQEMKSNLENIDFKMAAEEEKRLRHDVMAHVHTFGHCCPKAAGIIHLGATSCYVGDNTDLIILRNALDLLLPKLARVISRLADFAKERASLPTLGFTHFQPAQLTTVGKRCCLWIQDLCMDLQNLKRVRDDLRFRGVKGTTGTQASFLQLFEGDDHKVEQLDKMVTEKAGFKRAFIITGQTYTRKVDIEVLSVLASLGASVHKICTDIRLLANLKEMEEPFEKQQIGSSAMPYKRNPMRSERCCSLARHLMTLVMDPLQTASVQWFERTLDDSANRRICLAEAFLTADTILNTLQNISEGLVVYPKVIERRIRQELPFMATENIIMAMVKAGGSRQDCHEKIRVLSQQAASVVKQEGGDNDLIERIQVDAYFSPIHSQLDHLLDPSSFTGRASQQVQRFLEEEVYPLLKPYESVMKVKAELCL
# UniProt P35573: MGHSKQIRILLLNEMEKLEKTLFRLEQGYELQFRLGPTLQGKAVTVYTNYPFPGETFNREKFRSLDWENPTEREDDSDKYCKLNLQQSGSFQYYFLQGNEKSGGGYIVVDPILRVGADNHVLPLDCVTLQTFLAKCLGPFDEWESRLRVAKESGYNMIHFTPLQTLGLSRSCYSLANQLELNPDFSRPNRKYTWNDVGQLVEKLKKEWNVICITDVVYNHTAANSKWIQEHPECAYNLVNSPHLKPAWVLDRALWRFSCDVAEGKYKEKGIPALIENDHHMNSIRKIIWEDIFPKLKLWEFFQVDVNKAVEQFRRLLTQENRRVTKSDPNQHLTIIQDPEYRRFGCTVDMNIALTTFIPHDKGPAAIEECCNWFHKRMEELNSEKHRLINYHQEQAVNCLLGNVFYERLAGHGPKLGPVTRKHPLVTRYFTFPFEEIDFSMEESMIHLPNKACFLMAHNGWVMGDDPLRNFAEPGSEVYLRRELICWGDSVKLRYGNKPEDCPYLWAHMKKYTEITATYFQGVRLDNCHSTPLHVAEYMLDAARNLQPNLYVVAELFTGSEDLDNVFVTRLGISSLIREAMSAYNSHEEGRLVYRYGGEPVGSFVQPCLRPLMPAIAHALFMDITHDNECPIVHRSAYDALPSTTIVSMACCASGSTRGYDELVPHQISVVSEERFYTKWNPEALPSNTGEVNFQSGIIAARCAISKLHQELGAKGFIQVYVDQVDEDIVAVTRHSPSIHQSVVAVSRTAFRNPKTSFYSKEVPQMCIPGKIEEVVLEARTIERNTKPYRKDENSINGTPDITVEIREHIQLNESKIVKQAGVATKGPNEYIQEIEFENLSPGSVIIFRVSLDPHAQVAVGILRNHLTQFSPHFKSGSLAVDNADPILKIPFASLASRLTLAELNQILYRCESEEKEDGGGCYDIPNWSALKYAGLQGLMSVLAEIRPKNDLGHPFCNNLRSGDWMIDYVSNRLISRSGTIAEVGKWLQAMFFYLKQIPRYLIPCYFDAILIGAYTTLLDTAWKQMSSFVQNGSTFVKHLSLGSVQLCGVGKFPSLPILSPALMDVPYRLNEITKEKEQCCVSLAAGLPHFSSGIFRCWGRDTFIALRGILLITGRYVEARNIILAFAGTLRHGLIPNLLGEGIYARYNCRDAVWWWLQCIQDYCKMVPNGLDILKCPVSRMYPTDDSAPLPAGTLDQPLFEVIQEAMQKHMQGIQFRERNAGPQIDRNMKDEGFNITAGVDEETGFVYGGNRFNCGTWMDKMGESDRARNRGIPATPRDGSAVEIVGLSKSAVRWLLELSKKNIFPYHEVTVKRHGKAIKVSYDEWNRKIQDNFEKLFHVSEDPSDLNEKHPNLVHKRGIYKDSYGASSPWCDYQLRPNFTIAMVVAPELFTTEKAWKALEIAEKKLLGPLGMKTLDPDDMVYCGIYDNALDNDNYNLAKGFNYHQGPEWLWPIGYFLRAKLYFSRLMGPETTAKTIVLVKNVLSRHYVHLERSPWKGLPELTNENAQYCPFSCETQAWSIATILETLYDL
# UniProt O60488: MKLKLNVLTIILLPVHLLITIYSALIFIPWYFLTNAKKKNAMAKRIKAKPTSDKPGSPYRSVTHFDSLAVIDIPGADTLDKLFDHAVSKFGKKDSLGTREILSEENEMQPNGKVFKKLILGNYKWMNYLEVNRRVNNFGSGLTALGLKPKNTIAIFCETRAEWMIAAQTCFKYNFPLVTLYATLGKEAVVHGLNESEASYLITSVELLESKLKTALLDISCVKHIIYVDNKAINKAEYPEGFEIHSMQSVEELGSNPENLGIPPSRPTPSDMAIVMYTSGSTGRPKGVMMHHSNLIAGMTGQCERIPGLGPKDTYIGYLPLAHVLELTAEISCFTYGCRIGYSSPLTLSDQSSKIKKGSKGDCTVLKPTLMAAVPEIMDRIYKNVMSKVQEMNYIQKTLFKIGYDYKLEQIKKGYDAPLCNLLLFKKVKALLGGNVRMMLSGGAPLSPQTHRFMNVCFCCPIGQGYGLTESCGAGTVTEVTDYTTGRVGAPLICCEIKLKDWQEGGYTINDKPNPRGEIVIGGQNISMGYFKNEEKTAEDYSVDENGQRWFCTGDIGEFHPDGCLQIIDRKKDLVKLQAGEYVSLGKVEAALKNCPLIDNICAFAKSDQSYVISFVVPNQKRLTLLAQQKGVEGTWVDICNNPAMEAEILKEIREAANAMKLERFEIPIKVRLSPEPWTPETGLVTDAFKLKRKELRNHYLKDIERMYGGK
# UniProt Q9H2P0: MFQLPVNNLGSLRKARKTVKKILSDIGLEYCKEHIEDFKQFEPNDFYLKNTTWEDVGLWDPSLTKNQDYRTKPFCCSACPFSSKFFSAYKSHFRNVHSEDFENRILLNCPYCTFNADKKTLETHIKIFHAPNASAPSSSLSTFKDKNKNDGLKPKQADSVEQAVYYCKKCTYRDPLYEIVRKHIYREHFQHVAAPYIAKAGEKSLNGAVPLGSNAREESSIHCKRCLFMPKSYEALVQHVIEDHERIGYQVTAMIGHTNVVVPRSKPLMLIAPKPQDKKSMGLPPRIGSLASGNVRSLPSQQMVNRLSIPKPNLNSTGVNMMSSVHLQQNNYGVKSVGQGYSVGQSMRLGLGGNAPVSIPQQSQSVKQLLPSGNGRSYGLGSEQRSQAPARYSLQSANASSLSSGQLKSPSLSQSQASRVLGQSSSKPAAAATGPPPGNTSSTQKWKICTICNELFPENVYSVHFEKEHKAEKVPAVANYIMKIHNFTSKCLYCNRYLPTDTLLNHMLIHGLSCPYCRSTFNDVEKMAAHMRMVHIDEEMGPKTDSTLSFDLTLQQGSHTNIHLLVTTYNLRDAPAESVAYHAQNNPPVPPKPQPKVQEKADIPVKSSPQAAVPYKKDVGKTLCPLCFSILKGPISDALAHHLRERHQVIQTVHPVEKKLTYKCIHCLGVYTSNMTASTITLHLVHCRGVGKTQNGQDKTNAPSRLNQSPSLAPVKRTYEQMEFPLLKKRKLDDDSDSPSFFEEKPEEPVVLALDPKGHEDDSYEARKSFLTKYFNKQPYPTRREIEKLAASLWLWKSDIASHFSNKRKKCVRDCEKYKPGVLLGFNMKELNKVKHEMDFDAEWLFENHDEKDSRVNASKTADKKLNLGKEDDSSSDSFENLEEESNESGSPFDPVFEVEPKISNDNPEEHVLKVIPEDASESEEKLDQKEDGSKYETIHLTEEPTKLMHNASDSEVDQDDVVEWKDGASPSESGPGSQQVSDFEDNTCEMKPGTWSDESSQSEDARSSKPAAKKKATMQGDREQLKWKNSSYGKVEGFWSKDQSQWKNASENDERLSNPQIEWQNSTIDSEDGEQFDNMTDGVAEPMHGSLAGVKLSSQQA
# UniProt P11117: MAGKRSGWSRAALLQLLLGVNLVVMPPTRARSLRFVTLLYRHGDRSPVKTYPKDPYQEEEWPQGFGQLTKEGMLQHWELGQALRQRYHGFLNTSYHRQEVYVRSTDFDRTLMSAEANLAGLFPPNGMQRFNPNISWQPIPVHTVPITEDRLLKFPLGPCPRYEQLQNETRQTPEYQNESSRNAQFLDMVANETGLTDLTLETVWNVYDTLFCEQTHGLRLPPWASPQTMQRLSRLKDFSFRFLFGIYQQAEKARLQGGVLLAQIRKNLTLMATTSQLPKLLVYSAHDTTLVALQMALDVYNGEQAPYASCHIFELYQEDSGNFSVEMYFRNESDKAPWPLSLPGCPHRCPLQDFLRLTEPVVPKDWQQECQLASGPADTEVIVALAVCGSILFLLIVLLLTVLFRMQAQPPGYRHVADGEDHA
# UniProt Q03154: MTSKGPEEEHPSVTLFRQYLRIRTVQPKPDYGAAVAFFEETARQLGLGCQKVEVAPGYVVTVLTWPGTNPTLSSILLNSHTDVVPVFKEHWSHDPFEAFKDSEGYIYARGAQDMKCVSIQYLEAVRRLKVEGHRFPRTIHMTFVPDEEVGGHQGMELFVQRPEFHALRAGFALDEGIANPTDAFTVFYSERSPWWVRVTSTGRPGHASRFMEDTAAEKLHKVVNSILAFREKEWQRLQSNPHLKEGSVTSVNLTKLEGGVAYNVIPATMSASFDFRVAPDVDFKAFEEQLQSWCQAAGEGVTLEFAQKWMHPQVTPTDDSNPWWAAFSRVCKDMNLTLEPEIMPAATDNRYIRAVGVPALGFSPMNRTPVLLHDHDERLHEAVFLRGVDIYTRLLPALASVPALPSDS
# UniProt Q13444: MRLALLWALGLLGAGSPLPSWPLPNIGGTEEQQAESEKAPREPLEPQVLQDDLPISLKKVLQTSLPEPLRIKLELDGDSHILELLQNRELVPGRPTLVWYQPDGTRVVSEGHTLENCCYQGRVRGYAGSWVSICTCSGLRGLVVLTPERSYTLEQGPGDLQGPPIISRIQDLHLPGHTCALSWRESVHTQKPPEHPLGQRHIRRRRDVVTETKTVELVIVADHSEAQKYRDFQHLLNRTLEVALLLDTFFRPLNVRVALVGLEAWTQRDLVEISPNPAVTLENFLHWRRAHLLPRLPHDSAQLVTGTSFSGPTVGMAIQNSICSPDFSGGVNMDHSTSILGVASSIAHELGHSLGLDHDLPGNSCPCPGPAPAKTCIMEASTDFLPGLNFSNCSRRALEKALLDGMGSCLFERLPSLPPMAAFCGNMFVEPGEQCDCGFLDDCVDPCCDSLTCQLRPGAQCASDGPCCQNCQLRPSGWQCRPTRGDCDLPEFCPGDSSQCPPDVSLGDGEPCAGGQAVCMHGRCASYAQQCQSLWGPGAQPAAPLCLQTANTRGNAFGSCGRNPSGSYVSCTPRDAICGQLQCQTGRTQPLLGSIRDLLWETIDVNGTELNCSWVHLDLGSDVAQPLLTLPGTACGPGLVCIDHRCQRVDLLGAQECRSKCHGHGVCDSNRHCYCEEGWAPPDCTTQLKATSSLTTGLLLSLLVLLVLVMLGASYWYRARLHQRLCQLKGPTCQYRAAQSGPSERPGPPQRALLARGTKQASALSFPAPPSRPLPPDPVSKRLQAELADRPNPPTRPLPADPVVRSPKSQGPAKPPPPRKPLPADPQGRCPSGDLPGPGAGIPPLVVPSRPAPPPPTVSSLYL
# UniProt P24666: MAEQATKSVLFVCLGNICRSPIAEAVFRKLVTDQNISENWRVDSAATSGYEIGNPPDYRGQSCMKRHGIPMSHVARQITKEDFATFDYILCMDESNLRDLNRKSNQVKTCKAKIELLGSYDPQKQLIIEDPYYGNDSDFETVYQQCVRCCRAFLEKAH
# UniProt O43707, whole entry, looked up: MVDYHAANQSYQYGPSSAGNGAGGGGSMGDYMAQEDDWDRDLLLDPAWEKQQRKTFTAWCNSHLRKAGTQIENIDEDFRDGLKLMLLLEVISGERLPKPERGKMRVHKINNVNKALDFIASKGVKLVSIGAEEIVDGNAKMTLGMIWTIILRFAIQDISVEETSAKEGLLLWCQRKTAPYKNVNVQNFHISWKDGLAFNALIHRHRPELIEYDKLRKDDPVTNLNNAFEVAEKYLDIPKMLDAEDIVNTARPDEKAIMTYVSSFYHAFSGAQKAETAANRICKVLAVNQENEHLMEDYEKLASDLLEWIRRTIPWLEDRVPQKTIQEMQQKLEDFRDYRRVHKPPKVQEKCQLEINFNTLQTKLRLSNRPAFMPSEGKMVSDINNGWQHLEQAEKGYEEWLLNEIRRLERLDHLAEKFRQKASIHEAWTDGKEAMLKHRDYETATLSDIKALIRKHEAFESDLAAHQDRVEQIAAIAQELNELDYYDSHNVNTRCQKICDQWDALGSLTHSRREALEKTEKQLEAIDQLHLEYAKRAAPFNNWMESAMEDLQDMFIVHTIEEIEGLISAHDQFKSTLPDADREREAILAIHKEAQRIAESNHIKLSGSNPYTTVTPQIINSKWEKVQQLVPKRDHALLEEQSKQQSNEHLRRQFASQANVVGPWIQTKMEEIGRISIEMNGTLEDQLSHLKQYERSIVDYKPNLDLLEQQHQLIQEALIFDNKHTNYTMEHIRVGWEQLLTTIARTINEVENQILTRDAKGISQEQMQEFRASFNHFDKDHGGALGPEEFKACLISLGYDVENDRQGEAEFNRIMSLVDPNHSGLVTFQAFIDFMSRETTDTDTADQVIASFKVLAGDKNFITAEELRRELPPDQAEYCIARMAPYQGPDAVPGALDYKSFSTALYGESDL
# Compound: Cc1cc(ccc1-c1ccccc1)C(=O)N1CCCN(CC1)C(=O)CCl [compound 10]
# Test: probe-labelled cysteine peptide fold change vs DMSO (competition) (log2 fold change); higher = less target engagement (more negative = stronger competition)
# Conditions: THP-1, incubation time: 4 h
# 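Note: competitive profiling in live THP-1 cells: cysteine peptides tagged with an iodoacetamide desthiobiotin (IA-DTB) probe, intensity after compound treatment relative to DMSO-treated cells.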
Target,probe-labelled cysteine peptide fold change (10 µM),probe-labelled cysteine peptide fold change (50 µM)
ADAR_P55265_499_KLTECQLK (UniProt P55265),-0.266,-0.277
ADAR_P55265_490_CSPYKK (UniProt P55265),-0.379,-0.683
ACSF2_Q96CM8_553_MGEEICACIR (UniProt Q96CM8),-0.00986,-0.39
ADSL_P30566_173_CCLWIQDLCMDLQNLK (UniProt P30566),-0.0248,0.431
ADSL_P30566_27_YASPEMCFVFSDR (UniProt P30566),0.0352,-0.1
AGL_P35573_172_SCYSLANQLELNPDFSRPNRK (UniProt P35573),0.0894,0.0496
ADAR_P55265_1036_TMSCSDK (UniProt P55265),-0.163,0.0577
ADRM1_Q16186_80_TSGNVEDDLIIFPDDCEFK (UniProt Q16186),-0.151,0.0576
ADNP2_Q6IQ32_74_TKPYCCGLCK (UniProt Q6IQ32),0.0257,-0.104
ACSL4_O60488_494_VGAPLICCEIK (UniProt O60488),-0.0012,-0.649
ADAR_P55265_304_ICDYLFNVSDSSALNLAK (UniProt P55265),0.183,0.123
ADH5_P11766_240_EFGATECINPQDFSK (UniProt P11766),-0.307,0.241
ADNP_Q9H2P0_167_QADSVEQAVYYCK (UniProt Q9H2P0),0.131,-0.0465
ACP2_P11117_349_CPLQDFLR (UniProt P11117),-0.0584,-0.0485
ADRM1_Q16186_121_TDQDEEHCRK (UniProt Q16186),-0.285,0.117
ACSF3_Q4G176_86_LCGCVGGDLREER (UniProt Q4G176),0.0284,-0.148
ACTR3_P61158_394_YAVWFGGSMLASTPEFYQVCHTKK (UniProt P61158),-0.25,-0.43
AGL_P35573_528_LDNCHSTPLHVAEYMLDAAR (UniProt P35573),0.0113,-0.462
ACTR3_P61158_408_KDYEEIGPSICR (UniProt P61158),-0.045,-0.293
ADNP_Q9H2P0_79_TKPFCCSACPFSSK (UniProt Q9H2P0),-0.0136,0.0646
AGL_P35573_212_EWNVICITDVVYNHTAANSK (UniProt P35573),0.0898,0.132

Target,probe-labelled cysteine peptide fold change (10 µM),probe-labelled cysteine peptide fold change (50 µM)
ADRM1_Q16186_88_RVPQCPSGR (UniProt Q16186),-0.183,0.0421
ACY1_Q03154_116_CVSIQYLEAVRR (UniProt Q03154),-0.0698,-0.318
ADK_P55263_106_AATFFGCIGIDK (UniProt P55263),0.11,0.0122
ADAR_P55265_622_SPVTTLLECMHK (UniProt P55265),0.00696,-0.207
ACSL4_O60488_595_NCPLIDNICAFAK (UniProt O60488),-0.108,-0.126
ADSL_P30566_99_LRHDVMAHVHTFGHCCPK (UniProt P30566),-0.236,-0.31
ACY1_Q03154_49_QLGLGCQK (UniProt Q03154),0.128,0.132
ADK_P55263_336_PLTECIR (UniProt P55263),0.157,0.369
ADAM9_Q13443_539_DCFIEVNSK (UniProt Q13443),-0.0729,-0.137
ADH5_P11766_170+174_VCLLGCGISTGYGAAVNTAK (UniProt P11766),0.0173,-0.195
AFG3L2_Q9Y4W6_402_NAPCILFIDEIDAVGR (UniProt Q9Y4W6),0.163,0.357
ADCY9_O60503_1204_MDTTGVECR (UniProt O60503),0.0815,-0.0282
ACSL5_Q9ULC5_288_CVEHAYEPTPDDVAISYLPLAHMFER (UniProt Q9ULC5),0.179,0.0741
ACTR2_P61160_11_VVVCDNGTGFVK (UniProt P61160),-0.054,0.175
AFF1_P51825_892_EADTCGQDPPK (UniProt P51825),-0.00759,-0.221
ADAR_P55265_851_CFNTLTNSFQPSLLGR (UniProt P55265),-0.0671,0.166
ADARB1_P78563_393_GLALNDCHAEIISR (UniProt P78563),-0.13,0.267
ADO_Q96SZ5_183_AEYTEASGPCILTPHR (UniProt Q96SZ5),-0.134,0.0874
ADGRA2_Q96PE1_194+196_VVDLGTEFLTCDCHLR (UniProt Q96PE1),-0.0444,-0.153
ADAM15_Q13444_179_IQDLHLPGHTCALSWR (UniProt Q13444),-0.0576,-0.321
ADGRE2_Q9UHX3_328_LQQHCVASHLLDGLEDVLR (UniProt Q9UHX3),-0.171,-0.096

Target,probe-labelled cysteine peptide fold change (10 µM),probe-labelled cysteine peptide fold change (50 µM)
ACP1_P24666_91_EDFATFDYILCMDESNLR (UniProt P24666),0.275,0.532
AGL_P35573_399_LINYHQEQAVNCLLGNVFYER (UniProt P35573),0.173,-0.125
AFTPH_Q6ULP2_659_IFEACFPSILVPDAEEEVTSLK (UniProt Q6ULP2),0.0219,-0.0706
ADK_P55263_353_TGCTFPEKPDFH (UniProt P55263),-0.0352,-0.472
ACSL1_P33121_311_ATENTVNPCPDDTLISFLPLAHMFER (UniProt P33121),-0.0184,0.148
ADH5_P11766_174_VCLLGCGISTGYGAAVNTAK (UniProt P11766),0.0907,-0.0539
ACSL1_P33121_274_RKPKPPAPEDLAVICFTSGTTGNPK (UniProt P33121),0.064,-0.191
ADPRH_P54922_129_IPFNSHEGGCGAAMR (UniProt P54922),-0.0992,-0.00192
ACTR10_Q9NZ32_215_TCFVSDLKR (UniProt Q9NZ32),0.00158,-0.263
AGL_P35573_767_EVPQMCIPGKIEEVVLEAR (UniProt P35573),-0.292,-0.537
ADAM10_O14672_435_FSLCSIR (UniProt O14672),-0.0469,-0.123
ADRM1_Q16186_121_TDQDEEHCR (UniProt Q16186),-0.244,0.172
ADAR_P55265_519_NPISGLLEYAQFASQTCEFNMIEQSGPPHEPR (UniProt P55265),0.0898,0.178
AGGF1_Q8N302_494_CDPYVLEHGDEVK (UniProt Q8N302),-0.119,0.156
ACSF2_Q96CM8_77_TVGQCLETTAQR (UniProt Q96CM8),-0.254,-0.0666
ACTL6A_O96019_206_SPLAGDFITMQCR (UniProt O96019),0.231,0.221
AGA_P20933_286_RGEDPTIACQK (UniProt P20933),-0.0749,0.294
ACSS2_Q9NR19_554_KFPGYYVTGDGCQR (UniProt Q9NR19),-0.00411,0.0226
ACSS1_Q9NUB1_422_TLGSVGEPINCEAWEWLHR (UniProt Q9NUB1),-0.355,-0.341
ADPGK_Q9BRR6_470_EGISFHFTPVLVCKDPIR (UniProt Q9BRR6),-0.0963,-0.485
ADNP_Q9H2P0_112_ILLNCPYCTFNADKK (UniProt Q9H2P0),0.0542,0.0297

Target,probe-labelled cysteine peptide fold change (10 µM),probe-labelled cysteine peptide fold change (50 µM)
ACSL4_O60488_363_GDCTVLKPTLMAAVPEIMDR (UniProt O60488),0.108,-0.0558
ADH5_P11766_170_VCLLGCGISTGYGAAVNTAK (UniProt P11766),0.0396,-0.394
ADD2_P35612_210_GSSCFPVDTTGFCLHSAIYAARPDVR (UniProt P35612),-0.237,-0.0743
ADH5_P11766_103_FCLNPK (UniProt P11766),-0.0749,-0.577
ACTR2_P61160_20_CGYAGSNFPEHIFPALVGRPIIR (UniProt P61160),-0.0836,-0.0366
ACOT9_Q9Y305_194_MQMFQLHGDEFCPVLDATFVMVAR (UniProt Q9Y305),-0.228,-0.161
ADAR_P55265_773_WFPAVCAHSK (UniProt P55265),-0.121,-0.262
ACTN4_O43707_495_CQKICDQWDALGSLTHSRR (UniProt O43707),-0.0414,-0.476
ADSS_P30520_182_MCDLVSDFDGFSER (UniProt P30520),0.103,0.121
ADGRA2_Q96PE1_1147_LTNLQLAQSQVCEAGAAAGGEGEPEPAGTR (UniProt Q96PE1),-0.512,-0.0968
ADAP1_O75689_101_VPSFYYRPTPSDCQLLR (UniProt O75689),-0.108,0.0541
ADAM15_Q13444_409_ALLDGMGSCLFER (UniProt Q13444),-0.0293,0.0134
ACP2_P11117_159_FPLGPCPR (UniProt P11117),-0.0318,-0.0842
ACTN4_O43707_499_ICDQWDALGSLTHSR (UniProt O43707),0.0925,0.0683
ACSL4_O60488_420_GYDAPLCNLLLFK (UniProt O60488),-0.123,-0.309
ADAR_P55265_649_FQYCVAVGAQTFPSVSAPSK (UniProt P55265),0.13,-0.419
ACSL3_O95573_503_VGAPLVCCEIK (UniProt O95573),0.0585,-0.287
ACSL3_O95573_503+504_VGAPLVCCEIK (UniProt O95573),0.0275,-0.45
ACTR8_Q9H981_351_ETFCHLDQDISGLQDHEFQIR (UniProt Q9H981),0.113,0.168

# As entered above.
# ADH5_P11766_170_VCLLGCGISTGYGAAVNTAK (UniProt P11766) – probe-labelled cysteine peptide fold change (50 µM): -0.394
# ACSL3_O95573_503_VGAPLVCCEIK (UniProt O95573) – probe-labelled cysteine peptide fold change (50 µM): -0.287
# ADAR_P55265_773_WFPAVCAHSK (UniProt P55265) – probe-labelled cysteine peptide fold change (50 µM): -0.262
# ADSS_P30520_182_MCDLVSDFDGFSER (UniProt P30520) – probe-labelled cysteine peptide fold change (50 µM): 0.121
# ACSL4_O60488_363_GDCTVLKPTLMAAVPEIMDR (UniProt O60488) – probe-labelled cysteine peptide fold change (50 µM): -0.0558
